Measurements reported in PubChem BioAssay AID1259308 (NCATS, 2017).
The deposit covers about 59,000 reagents; below is an unselected part. About 1,510 of all reagents (2.6%) were called active. 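Calls use total luciferase alone and ignore viability, so some active siRNAs may act by altering cell number.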 Reagents against one gene are numbered here. Not all columns of the deposit are shown.

Purpose: 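Candidate targets for better recombinant protein yield in mammalian cells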 (primary screen)
System: human HEK293 embryonic kidney cells stably expressing firefly luciferase (HEK-CMV-Luc2-Hygro)
Reagents: single siRNA against human genes, 0.8 pmol siRNA per well
Duration: 72 h
Measurement: 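Reporter luminescence and viable-cell signal on separate replicate plates, given as percent of non-targeting control and median/MAD z-scores, plus per-cell luciferase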
Direction: total luciferase, z-score and total luciferase, % of control: higher = more reporter protein produced
Rule for the call: 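Active when the median/MAD z-score for overall luciferase is greater than 3; a gene was taken forward for validation with new siRNAs if at least two of its three siRNAs passed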
Calls: active = raised luciferase; inactive = no rise

| Target gene | reagent | total luciferase, z-score | total luciferase, % of control | outcome |
| --- | --- | --- | --- | --- |
| STXBP5L | 1 | -0.0932 | 80 | inactive |
| STXBP5L | 2 | -1.32 | 55.6 | inactive |
| STXBP5L | 3 | 0.0709 | 83.3 | inactive |
| DTNB | 1 | -0.0207 | 81.5 | inactive |
| DTNB | 2 | -0.902 | 64 | inactive |
| DTNB | 3 | 0.495 | 91.7 | inactive |
| RPL36AP46 | 1 | 1.1 | 104 | inactive |
| RPL36AP46 | 2 | 0.338 | 88.6 | inactive |
| RPL36AP46 | 3 | -1.02 | 61.7 | inactive |
| MAPKAP1 | 1 | -0.99 | 62.2 | inactive |
| MAPKAP1 | 2 | 0.0441 | 82.8 | inactive |
| MAPKAP1 | 3 | -0.579 | 70.4 | inactive |
| COPRS | 1 | -0.0613 | 80.7 | inactive |
| COPRS | 2 | 0.308 | 88 | inactive |
| COPRS | 3 | -1.95 | 43.1 | inactive |
| LARGE2 | 1 | 1.04 | 103 | inactive |
| LARGE2 | 2 | 2 | 122 | inactive |
| LARGE2 | 3 | -0.552 | 70.9 | inactive |
| PRDX1 | 1 | 0.884 | 99.5 | inactive |
| PRDX1 | 2 | -1.43 | 53.4 | inactive |
| PRDX1 | 3 | -0.128 | 79.3 | inactive |
| RNF114 | 1 | -0.572 | 70.5 | inactive |
| RNF114 | 2 | -0.553 | 70.9 | inactive |
| RNF114 | 3 | -0.485 | 72.2 | inactive |
| CNBD2 | 1 | 0.532 | 92.5 | inactive |
| CNBD2 | 2 | -0.675 | 68.5 | inactive |
| CNBD2 | 3 | 0.573 | 93.3 | inactive |
| TGIF2 | 1 | 0.818 | 98.2 | inactive |
| TGIF2 | 2 | -1.21 | 57.9 | inactive |
| TGIF2 | 3 | -0.377 | 74.4 | inactive |
| RPS6 | 1 | -3.1 | 20.1 | inactive |
| RPS6 | 2 | -1.5 | 52.1 | inactive |
| RPS6 | 3 | -2.74 | 27.4 | inactive |
| TMEM8B | 1 | 0.267 | 87.2 | inactive |
| TMEM8B | 2 | -2.29 | 36.3 | inactive |
| TMEM8B | 3 | 0.442 | 90.7 | inactive |
| UBTFL3 | 1 | 0.944 | 101 | inactive |
| UBTFL3 | 2 | -0.859 | 64.8 | inactive |
| UBTFL3 | 3 | -0.359 | 74.7 | inactive |
| ACTR8 | 1 | -0.162 | 78.7 | inactive |
| ACTR8 | 2 | 0.102 | 83.9 | inactive |
| ACTR8 | 3 | -1.23 | 57.4 | inactive |
| PIGQ | 1 | 1.7 | 116 | inactive |
| PIGQ | 2 | -1.01 | 61.9 | inactive |
| PIGQ | 3 | 0.255 | 87 | inactive |
| MAGOHB | 1 | 1.16 | 105 | inactive |
| MAGOHB | 2 | 0.119 | 84.3 | inactive |
| MAGOHB | 3 | -0.612 | 69.7 | inactive |
| CD93 | 1 | -0.734 | 67.3 | inactive |
| CD93 | 2 | 0.302 | 87.9 | inactive |
| CD93 | 3 | 0.0049 | 82 | inactive |
| C1QL3 | 1 | 2.76 | 137 | inactive |
| C1QL3 | 2 | -1.31 | 55.8 | inactive |
| C1QL3 | 3 | -0.397 | 74 | inactive |
| MTHFD1L | 1 | -0.958 | 62.8 | inactive |
| MTHFD1L | 2 | -0.103 | 79.8 | inactive |
| MTHFD1L | 3 | 1.75 | 117 | inactive |

An excerpt from above, limited to “total luciferase, z-score”.
ACTR8 #1	-0.162
ACTR8 #2	0.102
ACTR8 #3	-1.23
PIGQ #1	1.7
PIGQ #2	-1.01
PIGQ #3	0.255
MAGOHB #1	1.16
MAGOHB #2	0.119
